Values of other authors, collected in patent publication US10231995B2, “Selenium-containing compositions and uses thereof” (SELO MEDICAL GMBH, priority 2001, dated 2019).
At least one structure is not confirmed: it was looked up by name or label, or the drawing left a doubt.

COC1=C(OC)C(=O)C(C/C=C(\C)CC/C=C(\C)CC/C=C(\C)CC/C=C(\C)CC/C=C(\C)CC/C=C(\C)CC/C=C(\C)CC/C=C(\C)CC/C=C(\C)CCC=C(C)C)=C(C)C1=O [ubichinon (coenzyme Q10), ubichinon]
Eo standard redox potential: +0.100 Volt
